Article PMC9785812 (Pharmaceutics, 2022)

Test: Dosimetry (MIRD formalism) in CA20948 xenograft mice
Type: in vivo, mouse

In the case of `C[C@@H](O)[C@H](NC(=O)[C@@H]1CSSC[C@H](NC(=O)[C@@H](Cc2ccccc2)NC(=O)CN2CCN(CC(=O)O)CCN(CC(=O)O)CCN(CC(=O)O)CC2)C(=O)N[C@@H](Cc2ccc(O)cc2)C(=O)N[C@H](Cc2c[nH]c3ccccc23)C(=O)N[C@@H](CCCCN)C(=O)N[C@@H]([C@@H](C)O)C(=O)N1)C(=O)O` [[^153Sm]Sm-DOTA-TATE, metal not drawn], the “absorbed dose, kidneys” value (kidney m = 0.26 g, MIRD, S values by MCNP6.2) is reported as 3.35 mGy/MBq·s, the “dose to the kidneys” value (mouse injected with 2 MBq) is reported as 6.7 mGy/s and the “dose to the tumor” value (mouse injected with 2 MBq) is reported as 6 mGy/s. The “absorbed dose, tumor” value (spherical tumor, m = 0.42 g, MIRD, S values by MCNP6.2) was 30.7 mGy/MBq·s.
